# According to PubChem BioAssay AID328 (DTP/NCI, 2004):
# The list does not hold the whole screen: it is rich in T/C values a quarter to a half above the control, in often repeated tests (any T/C) and in doses without a T/C. Other doses and runs of a compound stand elsewhere. T/C is the treated group as % of the vehicle group. Some doses have a count of surviving animals in place of a T/C: the source holds a T/C of zero for them, seemingly a mark for toxic or unscored doses. Some survivor counts are full or nearly so, which does not show that the dose was tolerated: survival well below the control is almost never listed, so the zero probably covers shortened survival too. Counts of survivors are from the toxicity check (mostly the fifth day) where no day follows; animals may have died later. Schedules are NCI's codes, read here as Q, the interval in days (D) or hours (H), X, the number of doses. Signs of the kind (2×) say how often a value occurs here. Some entries hold several experiments; the values are given in rising order. Where survival is the endpoint, the PubChem record calls one and a half times the control and up active, and a quarter to a half above the control has no call in these data; cut-offs in other NCI protocols can differ. Some T/C values carry the count of animals alive at the toxicity check (mostly the fifth day); where none is given, no animal had died by that day. Some schedule codes hold Z or #, which are not explained here.
# System: BDF1 mice, P388 leukemia ip, median survival T/C
# Test: NCI In Vivo Anticancer Drug Screen. Data for tumor model P388 Leukemia (intraperitoneal) in B6D2F1 (BDF1) mice
# Settings: T/C endpoint: median survival time, higher T/C = longer survival
# Procedure, shortened: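 In tumour-bearing mice, survival after compound treatment is set against the vehicle group and given as a quotient.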
# [1] = dose: 16.0 mg/kg/injection, schedule: Q01DX009 (ip), vehicle: Klucel (hydroxypropylcellulose) (HPC)
# [2] = dose: 80.0 mg/kg/injection, schedule: Q01DX001 (ip), vehicle: saline + alcohol
smiles,measurement,setting,value
O=NN(CCCl)C(=O)NCCCl,T/C,"dose: 2.0 mg/kg/injection, schedule: Q01DX009 (ip), vehicle: Klucel (hydroxypropylcellulose) (HPC)","160, 172, 184, 189 % of control"
same,T/C,"dose: 2.0 mg/kg/injection, schedule: Q01DX009 (ip), vehicle: saline + alcohol, evaluated on day 30","150, 162, 163, 167 % of control"
same,T/C,"dose: 2.0 mg/kg/injection, schedule: Q01DX009 (ip), vehicle: saline + alcohol, evaluated on day 45",179 and 184 % of control
same,T/C,"dose: 2.0 mg/kg/injection, schedule: Q01DX009 (ip), vehicle: saline, evaluated on day 30","135, 156, 160, 184, 186, 187, 194, 198, 205, 232, 234, 247 % of control"
same,T/C,"dose: 2.0 mg/kg/injection, schedule: Q01DX009 (ip), vehicle: saline, evaluated on day 60","130, 139, 146, 149 % of control"
same,T/C,"dose: 2.5 mg/kg/injection, schedule: Q01DX001 (ip), vehicle: saline",132 % of control
same,T/C,"dose: 3.75 mg/kg/injection, schedule: Q01DX001 (ip), vehicle: saline + alcohol",138 % of control
same,T/C,"dose: 4.0 mg/kg/injection, schedule: Q01DX009 (ip), vehicle: Klucel (hydroxypropylcellulose) (HPC)","200, 209, 213 [5 of 6 alive], 249 % of control"
same,T/C,"dose: 4.0 mg/kg/injection, schedule: Q01DX009 (ip), vehicle: saline + alcohol, evaluated on day 30","210, 211, 233, 236 % of control"
same,T/C,"dose: 4.0 mg/kg/injection, schedule: Q01DX009 (ip), vehicle: saline + alcohol, evaluated on day 45",207 and 252 % of control
same,T/C,"dose: 4.0 mg/kg/injection, schedule: Q01DX009 (ip), vehicle: saline, evaluated on day 30","126, 168, 212, 222 [5 of 6 alive], 236, 251, 254, 256, 258, 272, 283, 287 % of control"
same,T/C,"dose: 4.0 mg/kg/injection, schedule: Q01DX009 (ip), vehicle: saline, evaluated on day 60","155, 179, 239, 259 % of control"
same,T/C,"dose: 7.5 mg/kg/injection, schedule: Q01DX001 (ip), vehicle: saline",125 % of control
same,T/C,"dose: 7.5 mg/kg/injection, schedule: Q01DX005 (ip), vehicle: saline + alcohol, evaluated on day 30","237, 283, 300 % of control"
same,T/C,"dose: 7.5 mg/kg/injection, schedule: Q01DX005 (ip), vehicle: saline + alcohol, evaluated on day 35",228 and 294 % of control
same,T/C,"dose: 7.5 mg/kg/injection, schedule: Q01DX005 (ip), vehicle: saline + alcohol, evaluated on day 40",334 % of control
same,T/C,"dose: 7.5 mg/kg/injection, schedule: Q01DX009 (ip), vehicle: saline + alcohol, evaluated on day 30","170, 265, 283 % of control"
same,T/C,"dose: 7.5 mg/kg/injection, schedule: Q01DX009 (ip), vehicle: saline + alcohol, evaluated on day 35",294 and 343 % of control
same,T/C,"dose: 7.5 mg/kg/injection, schedule: Q01DX009 (ip), vehicle: saline + alcohol, evaluated on day 40",396 % of control
same,T/C,"dose: 8.0 mg/kg/injection, schedule: Q01DX001 (ip), vehicle: saline + alcohol",128 % of control
same,T/C,"dose: 8.0 mg/kg/injection, schedule: Q01DX009 (ip), vehicle: Klucel (hydroxypropylcellulose) (HPC)","119, 215, 258, 270 % of control"
same,T/C,"dose: 8.0 mg/kg/injection, schedule: Q01DX009 (ip), vehicle: saline + alcohol, evaluated on day 5",395 and 533 % of control
same,T/C,"dose: 8.0 mg/kg/injection, schedule: Q01DX009 (ip), vehicle: saline + alcohol, evaluated on day 30","158, 231, 245, 251 % of control"
same,T/C,"dose: 8.0 mg/kg/injection, schedule: Q01DX009 (ip), vehicle: saline + alcohol, evaluated on day 45",330 and 427 % of control
same,T/C,"dose: 8.0 mg/kg/injection, schedule: Q01DX009 (ip), vehicle: saline, evaluated on day 30","118, 147, 178, 199, 203, 216, 238, 254, 257, 271, 305, 319 % of control"
same,T/C,"dose: 8.0 mg/kg/injection, schedule: Q01DX009 (ip), vehicle: saline, evaluated on day 60","156, 194, 209, 547 % of control"
same,T/C,"dose: 10.0 mg/kg/injection, schedule: Q#XHX024 (ip), vehicle: saline",140 % of control
same,T/C,"dose: 12.5 mg/kg/injection, schedule: Q01DX010 (ip), vehicle: saline",135 and 140 % of control
same,T/C,"dose: 13.0 mg/kg/injection, schedule: Q01DX001 (ip), vehicle: other",145 % of control
same,T/C,"dose: 13.0 mg/kg/injection, schedule: Q01DX001 (ip), vehicle: saline + alcohol",125 % of control
same,T/C,"dose: 15.0 mg/kg/injection, schedule: Q01DX005 (ip), vehicle: saline + alcohol, evaluated on day 30","143, 265, 283 % of control"
same,T/C,"dose: 15.0 mg/kg/injection, schedule: Q01DX005 (ip), vehicle: saline + alcohol, evaluated on day 35",343 % of control (2×)
same,T/C,"dose: 15.0 mg/kg/injection, schedule: Q01DX005 (ip), vehicle: saline + alcohol, evaluated on day 40",396 % of control
same,T/C,"dose: 15.0 mg/kg/injection, schedule: Q01DX009 (ip), vehicle: saline + alcohol, evaluated on day 30","98, 110, 132 % of control"
same,T/C,"dose: 15.0 mg/kg/injection, schedule: Q01DX009 (ip), vehicle: saline + alcohol, evaluated on day 35",120 and 147 % of control
same,T/C,"dose: 15.0 mg/kg/injection, schedule: Q01DX009 (ip), vehicle: saline + alcohol, evaluated on day 40",121 % of control
same,T/C,[1],87 and 99 % of control
same,survivor count,[1],5 of 6 and 6 of 6
same,T/C,"dose: 16.0 mg/kg/injection, schedule: Q01DX009 (ip), vehicle: other",133 % of control
same,T/C,"dose: 16.0 mg/kg/injection, schedule: Q01DX009 (ip), vehicle: saline + alcohol, evaluated on day 30","99, 101, 102 % of control"
same,T/C,"dose: 16.0 mg/kg/injection, schedule: Q01DX009 (ip), vehicle: saline + alcohol, evaluated on day 45",112 and 116 % of control
same,survivor count,"dose: 16.0 mg/kg/injection, schedule: Q01DX009 (ip), vehicle: saline + alcohol",6 of 6
same,T/C,"dose: 16.0 mg/kg/injection, schedule: Q01DX009 (ip), vehicle: saline, evaluated on day 30","90, 94, 95, 96, 102, 109, 119, 122, 128, 140, 157, 227 % of control"
same,T/C,"dose: 16.0 mg/kg/injection, schedule: Q01DX009 (ip), vehicle: saline, evaluated on day 60","94 [5 of 6 alive], 99, 111 % of control (2×)"
same,T/C,"dose: 20.0 mg/kg/injection, schedule: Q01DX001 (ip), vehicle: saline + alcohol, evaluated on day 30","159, 230, 283 % of control"
same,T/C,"dose: 20.0 mg/kg/injection, schedule: Q01DX001 (ip), vehicle: saline + alcohol, evaluated on day 35",176 and 238 % of control
same,T/C,"dose: 20.0 mg/kg/injection, schedule: Q01DX001 (ip), vehicle: saline + alcohol, evaluated on day 40",396 % of control
same,T/C,"dose: 20.0 mg/kg/injection, schedule: Q01DX001 (ip), vehicle: saline + alcohol, evaluated on day 60","231, 236, 330, 376, 535, 538 % of control"
same,survivor count,"dose: 24.0 mg/kg/injection, schedule: Q01DX001 (ip), vehicle: Klucel (hydroxypropylcellulose) (HPC)",10 of 10
same,survivor count,"dose: 25.0 mg/kg/injection, schedule: Q01DX010 (ip), vehicle: saline",6 of 6
same,T/C,"dose: 30.0 mg/kg/injection, schedule: Q01DX001 (ip), vehicle: saline + alcohol, evaluated on day 35",350 % of control
same,T/C,"dose: 30.0 mg/kg/injection, schedule: Q01DX001 (ip), vehicle: saline + alcohol, evaluated on day 46",327 % of control
same,T/C,"dose: 30.0 mg/kg/injection, schedule: Q01DX001 (ip), vehicle: saline + alcohol, evaluated on day 60","230, 232, 535, 540, 550, 562 % of control"
same,T/C,"dose: 30.0 mg/kg/injection, schedule: Q01DX005 (ip), vehicle: saline + alcohol, evaluated on day 30",87 and 90 % of control
same,T/C,"dose: 30.0 mg/kg/injection, schedule: Q01DX005 (ip), vehicle: saline + alcohol, evaluated on day 35",88 and 100 % of control
same,survivor count,"dose: 30.0 mg/kg/injection, schedule: Q01DX005 (ip), vehicle: saline + alcohol",6 of 6 (2×)
same,T/C,"dose: 30.0 mg/kg/injection, schedule: Q01DX009 (ip), vehicle: saline + alcohol, evaluated on day 30",93 % of control
same,T/C,"dose: 30.0 mg/kg/injection, schedule: Q01DX009 (ip), vehicle: saline + alcohol, evaluated on day 35",91 and 97 % of control
same,survivor count,"dose: 30.0 mg/kg/injection, schedule: Q01DX009 (ip), vehicle: saline + alcohol",6 of 6 (2×)
same,T/C,"dose: 40.0 mg/kg/injection, schedule: Q01DX001 (ip), vehicle: saline + alcohol, evaluated on day 30","265, 283, 300 % of control"
same,T/C,"dose: 40.0 mg/kg/injection, schedule: Q01DX001 (ip), vehicle: saline + alcohol, evaluated on day 35",199 and 343 % of control
same,T/C,"dose: 40.0 mg/kg/injection, schedule: Q01DX001 (ip), vehicle: saline + alcohol, evaluated on day 40",396 % of control
same,T/C,"dose: 40.0 mg/kg/injection, schedule: Q01DX001 (ip), vehicle: saline + alcohol, evaluated on day 60","513, 525, 534, 539, 549, 564 % of control"
same,survivor count,"dose: 48.0 mg/kg/injection, schedule: Q01DX001 (ip), vehicle: Klucel (hydroxypropylcellulose) (HPC)",10 of 10
same,survivor count,"dose: 60.0 mg/kg/injection, schedule: Q01DX001 (ip), vehicle: other",8 of 8
same,survivor count,"dose: 60.0 mg/kg/injection, schedule: Q01DX001 (ip), vehicle: saline + alcohol",5 of 6 and 7 of 8
same,survivor count,"dose: 60.0 mg/kg/injection, schedule: Q01DX001 (ip), vehicle: saline",6 of 8
same,T/C,[2],274 % of control
same,survivor count,[2],5 of 6 (2×) and 6 of 6 (2×)
